In doi:10.1101/2022.11.04.515170:
Numbering of substitutions follows the chain as printed. No constants are given. Whether binding was seen depends on the method and setting. Binding seen in cells or lysates may run through a third protein. Some entries that bind do so weakly or less than the wild type. Where a sequence is shown, tags or fusion partners need not be part of it. Values belong to the molecule of their own block, whether it stands above or below them.

Chains of the proteins cited; added tags and fusions are not shown. Lines headed by an entry give the natural chain unless they say otherwise; changes in a name come on top. Residues count along the entry.
UniProt Q13596, whole entry: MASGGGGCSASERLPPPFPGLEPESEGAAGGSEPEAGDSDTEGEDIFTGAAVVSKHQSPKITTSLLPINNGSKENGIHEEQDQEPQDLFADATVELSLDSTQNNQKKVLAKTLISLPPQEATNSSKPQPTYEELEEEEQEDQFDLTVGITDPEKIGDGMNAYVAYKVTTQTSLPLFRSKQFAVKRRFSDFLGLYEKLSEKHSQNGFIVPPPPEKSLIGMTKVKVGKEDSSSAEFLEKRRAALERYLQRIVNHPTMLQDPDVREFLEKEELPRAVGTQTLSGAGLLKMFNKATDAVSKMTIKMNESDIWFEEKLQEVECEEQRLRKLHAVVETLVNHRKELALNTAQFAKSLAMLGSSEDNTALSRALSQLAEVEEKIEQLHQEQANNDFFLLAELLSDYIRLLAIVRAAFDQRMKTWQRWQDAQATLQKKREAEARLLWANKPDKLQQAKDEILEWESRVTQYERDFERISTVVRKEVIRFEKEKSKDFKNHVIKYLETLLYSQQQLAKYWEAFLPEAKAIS
UniProt P11717, 41-2491: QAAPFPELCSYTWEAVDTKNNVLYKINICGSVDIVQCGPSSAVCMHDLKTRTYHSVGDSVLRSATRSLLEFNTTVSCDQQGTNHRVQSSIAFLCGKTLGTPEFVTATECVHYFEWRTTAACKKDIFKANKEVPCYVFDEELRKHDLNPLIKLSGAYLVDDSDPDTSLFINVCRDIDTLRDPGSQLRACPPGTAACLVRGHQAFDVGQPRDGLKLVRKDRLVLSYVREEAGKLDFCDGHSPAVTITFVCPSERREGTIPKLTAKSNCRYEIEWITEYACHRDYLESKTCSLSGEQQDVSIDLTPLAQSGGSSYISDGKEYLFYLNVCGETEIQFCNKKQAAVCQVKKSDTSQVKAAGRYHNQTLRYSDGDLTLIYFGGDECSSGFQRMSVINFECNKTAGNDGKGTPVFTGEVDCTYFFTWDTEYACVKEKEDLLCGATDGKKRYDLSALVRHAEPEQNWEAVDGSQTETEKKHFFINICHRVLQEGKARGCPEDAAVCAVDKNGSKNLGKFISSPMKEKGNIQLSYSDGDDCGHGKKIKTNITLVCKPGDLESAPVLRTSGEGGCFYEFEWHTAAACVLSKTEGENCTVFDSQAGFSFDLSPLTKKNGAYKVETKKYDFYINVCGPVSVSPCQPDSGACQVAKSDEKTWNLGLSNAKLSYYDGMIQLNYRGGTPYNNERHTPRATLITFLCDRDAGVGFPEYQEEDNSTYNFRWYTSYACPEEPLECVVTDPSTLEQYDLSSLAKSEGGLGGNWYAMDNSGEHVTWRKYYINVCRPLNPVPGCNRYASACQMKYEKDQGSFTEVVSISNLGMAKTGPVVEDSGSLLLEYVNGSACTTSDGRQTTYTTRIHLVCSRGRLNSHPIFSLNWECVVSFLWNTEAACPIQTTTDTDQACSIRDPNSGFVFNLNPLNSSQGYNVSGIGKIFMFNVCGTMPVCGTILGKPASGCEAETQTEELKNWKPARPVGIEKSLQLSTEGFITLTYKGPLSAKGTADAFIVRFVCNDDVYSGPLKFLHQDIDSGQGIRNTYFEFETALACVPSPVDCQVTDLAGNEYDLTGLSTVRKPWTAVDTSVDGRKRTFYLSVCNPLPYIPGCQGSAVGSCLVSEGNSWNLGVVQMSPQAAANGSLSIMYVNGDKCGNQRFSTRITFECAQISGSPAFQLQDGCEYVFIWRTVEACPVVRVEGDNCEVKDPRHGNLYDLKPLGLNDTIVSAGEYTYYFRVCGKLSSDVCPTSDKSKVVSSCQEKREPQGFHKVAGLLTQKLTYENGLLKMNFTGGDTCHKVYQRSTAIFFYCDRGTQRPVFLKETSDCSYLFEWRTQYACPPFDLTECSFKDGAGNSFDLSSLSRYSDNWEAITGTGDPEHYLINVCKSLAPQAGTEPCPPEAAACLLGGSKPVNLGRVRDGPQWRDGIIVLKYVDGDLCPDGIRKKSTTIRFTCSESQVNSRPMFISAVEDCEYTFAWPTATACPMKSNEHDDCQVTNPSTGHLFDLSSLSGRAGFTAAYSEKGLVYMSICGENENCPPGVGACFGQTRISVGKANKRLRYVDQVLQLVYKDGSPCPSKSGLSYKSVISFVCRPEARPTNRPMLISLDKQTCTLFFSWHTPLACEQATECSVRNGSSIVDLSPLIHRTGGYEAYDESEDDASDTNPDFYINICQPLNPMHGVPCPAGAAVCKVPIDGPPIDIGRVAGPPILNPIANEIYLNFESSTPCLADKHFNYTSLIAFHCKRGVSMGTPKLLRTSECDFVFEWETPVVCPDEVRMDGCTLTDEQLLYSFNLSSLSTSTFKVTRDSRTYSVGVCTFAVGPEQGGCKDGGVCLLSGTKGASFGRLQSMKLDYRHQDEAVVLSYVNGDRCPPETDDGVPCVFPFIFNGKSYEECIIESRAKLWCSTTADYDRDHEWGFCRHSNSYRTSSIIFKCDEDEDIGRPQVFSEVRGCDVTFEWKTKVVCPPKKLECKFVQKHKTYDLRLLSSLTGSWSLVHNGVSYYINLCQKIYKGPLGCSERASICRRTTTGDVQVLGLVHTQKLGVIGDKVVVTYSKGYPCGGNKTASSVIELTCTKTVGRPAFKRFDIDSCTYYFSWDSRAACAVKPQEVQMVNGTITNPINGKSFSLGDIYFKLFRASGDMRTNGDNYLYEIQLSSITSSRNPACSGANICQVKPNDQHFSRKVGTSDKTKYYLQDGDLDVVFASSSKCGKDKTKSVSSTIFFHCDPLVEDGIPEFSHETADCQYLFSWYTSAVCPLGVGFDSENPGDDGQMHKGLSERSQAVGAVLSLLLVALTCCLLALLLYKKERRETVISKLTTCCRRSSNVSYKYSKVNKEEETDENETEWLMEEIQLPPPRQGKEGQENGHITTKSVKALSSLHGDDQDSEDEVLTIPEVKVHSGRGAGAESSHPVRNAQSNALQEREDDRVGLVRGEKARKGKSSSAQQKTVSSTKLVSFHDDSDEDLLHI

How the values were obtained:
GFP-SNX32 F131D = target: T1, GFP-SNX32 F131D (UniProt Q86XE0); experiment: co-IP
T1 sequence: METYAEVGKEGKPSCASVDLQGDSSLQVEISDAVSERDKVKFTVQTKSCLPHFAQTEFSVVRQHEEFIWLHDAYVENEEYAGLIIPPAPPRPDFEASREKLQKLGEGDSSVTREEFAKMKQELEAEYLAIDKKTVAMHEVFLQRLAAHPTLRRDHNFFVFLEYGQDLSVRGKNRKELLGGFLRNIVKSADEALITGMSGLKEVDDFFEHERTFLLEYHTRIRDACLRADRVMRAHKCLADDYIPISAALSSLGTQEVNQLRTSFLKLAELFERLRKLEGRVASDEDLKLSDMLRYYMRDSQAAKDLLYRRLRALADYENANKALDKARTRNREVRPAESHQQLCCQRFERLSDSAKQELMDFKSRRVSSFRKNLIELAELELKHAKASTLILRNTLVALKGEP

His-SNX32ΔC = target: T2, His-SNX32ΔC (UniProt Q86XE0); experiment: pull-down
T2 sequence: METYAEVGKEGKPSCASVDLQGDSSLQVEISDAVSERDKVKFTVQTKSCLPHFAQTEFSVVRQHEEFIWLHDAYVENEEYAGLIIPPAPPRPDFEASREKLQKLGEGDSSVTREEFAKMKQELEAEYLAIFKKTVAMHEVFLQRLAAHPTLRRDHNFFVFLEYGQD

GFP-SNX32 WT = target: T3, GFP-SNX32 WT (UniProt Q86XE0); experiment: co-IP
T3 sequence: T1 sequence with D131F

GFP-SNX4, O95219 = target: T4, GFP-SNX4, O95219; experiment: co-IP; conditions: remark: other sources report otherwise
T4 chain: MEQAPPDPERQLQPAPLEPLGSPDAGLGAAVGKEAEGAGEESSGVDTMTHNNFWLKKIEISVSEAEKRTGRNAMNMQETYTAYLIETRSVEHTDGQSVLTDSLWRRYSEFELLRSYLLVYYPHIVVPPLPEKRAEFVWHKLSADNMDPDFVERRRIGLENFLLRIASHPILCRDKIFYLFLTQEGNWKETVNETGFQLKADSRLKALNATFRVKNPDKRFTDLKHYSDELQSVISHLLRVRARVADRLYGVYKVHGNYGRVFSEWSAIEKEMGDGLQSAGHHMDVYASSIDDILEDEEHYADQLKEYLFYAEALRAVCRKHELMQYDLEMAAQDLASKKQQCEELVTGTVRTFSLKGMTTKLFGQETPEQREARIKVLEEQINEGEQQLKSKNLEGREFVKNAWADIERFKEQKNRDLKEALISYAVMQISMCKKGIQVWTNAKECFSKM

GFP-SNX1 = GFP-SNX1 (UniProt Q13596); experiment: co-IP
GFP-SNX4 = target: T5, GFP-SNX4 (UniProt O95219); experiment: co-IP
T5 sequence: T4 chain

binding (GFP-SNX32 WT): binds | binding (GFP-SNX32 F131D): binds
Molecule: endogenous SNX1 (from UniProt Q13596 1-522)

binding (GFP-SNX1): binds | binding (GFP-SNX4): binds
B3: HA-SNX32ΔN (domain or fragment, UniProt Q86XE0 167-403)
chain: LSVRGKNRKELLGGFLRNIVKSADEALITGMSGLKEVDDFFEHERTFLLEYHTRIRDACLRADRVMRAHKCLADDYIPISAALSSLGTQEVNQLRTSFLKLAELFERLRKLEGRVASDEDLKLSDMLRYYMRDSQAAKDLLYRRLRALADYENANKALDKARTRNREVRPAESHQQLCCQRFERLSDSAKQELMDFKSRRVSSFRKNLIELAELELKHAKASTLILRNTLVALKGEP

Further lines, the molecule ahead of its results:

Molecule: Cation Independent Mannose-6-Phosphate Receptor (from UniProt P11717 41-2491)
binding (GFP-SNX32 F131D): no binding | binding (His-SNX32ΔC): binds

B1: HA-SNX32 FL, Q86XE0 1-403 (natural protein)
chain: T1 sequence with D131F
binding (GFP-SNX4, O95219): binds

B2: HA-SNX32ΔC (domain or fragment, UniProt Q86XE0 1-166)
chain: T2 sequence
binding (GFP-SNX1): no binding | binding (GFP-SNX4): no binding
